Data as given in US9926581B2, “Fagopyritol synthase genes and uses thereof” (Cornell Research Foundation, Inc., priority 2002, dated 2018).

Experiments:
immature soybean embryos = test: Embryo feeding experiments: cyclitols fed to immature soybean embryos, precocious maturation by slow drying, soluble carbohydrates in axis and cotyledons; format: in vivo, Glycine max (L.) Merrill
soybean explants [1] = test: Soybean explant feeding with 50 mM free cyclitols for one week, soluble carbohydrates in mature seeds; format: in vivo, Glycine max (L.) Merrill cv. Chippewa 64
soybean explants [2] = test: Soybean explant feeding 3 days with 50 mM cyclitol in 1% sucrose, slow drying time course, soluble carbohydrates in axis, cotyledon, seed coat and leaf
[3] = 250 mg fresh weight embryos, before feeding
[4] = after incubation with 30 mM myo-inositol, 100 mM D-chiro-inositol or 100 mM D-pinitol for 24 hours at 22° C.
[5] = 3 days transport of sucrose (1%) and D-chiro-inositol (50 mM), after 2 days slow drying, Rep 1
[6] = 3 days transport of sucrose (1%) and D-chiro-inositol (50 mM), after 2 days slow drying, Rep 2
[7] = 3 days transport of sucrose (1%) and D-chiro-inositol (50 mM), after 4 days slow drying, Rep 1
[8] = 3 days transport of sucrose (1%) and D-chiro-inositol (50 mM), after 4 days slow drying, Rep 2
[9] = 3 days transport of sucrose (1%) and D-chiro-inositol (50 mM), after 14 days slow drying, Rep 1
[10] = 3 days transport of sucrose (1%) and D-chiro-inositol (50 mM), after 14 days slow drying, Rep 2
[11] = 3 days transport of sucrose (1%) and D-chiro-inositol (50 mM), before slow drying, Rep 1
[12] = 3 days transport of sucrose (1%) and D-chiro-inositol (50 mM), before slow drying, Rep 2
[13] = 3 days transport of sucrose (1%) and D-pinitol (50 mM), after 2 days slow drying, Rep 1
[14] = 3 days transport of sucrose (1%) and D-pinitol (50 mM), after 2 days slow drying, Rep 2
[15] = 3 days transport of sucrose (1%) and D-pinitol (50 mM), after 4 days slow drying, Rep 1
[16] = 3 days transport of sucrose (1%) and D-pinitol (50 mM), after 4 days slow drying, Rep 2
[17] = 3 days transport of sucrose (1%) and D-pinitol (50 mM), after 14 days slow drying, Rep 1
[18] = 3 days transport of sucrose (1%) and D-pinitol (50 mM), after 14 days slow drying, Rep 2
[19] = 3 days transport of sucrose (1%) and D-pinitol (50 mM), before slow drying, Rep 1
[20] = 3 days transport of sucrose (1%) and D-pinitol (50 mM), before slow drying, Rep 2
[21] = 3 days transport of sucrose (1%) and myo-inositol (50 mM), after 2 days slow drying, Rep 1
[22] = 3 days transport of sucrose (1%) and myo-inositol (50 mM), after 2 days slow drying, Rep 2
[23] = 3 days transport of sucrose (1%) and myo-inositol (50 mM), after 4 days slow drying, Rep 1
[24] = 3 days transport of sucrose (1%) and myo-inositol (50 mM), after 4 days slow drying, Rep 2

Question: For `CO[C@H]1[C@H](O)[C@@H](O)[C@@H](O)[C@H](O)[C@@H]1O` [D-Pinitol, 1D-3-O-methyl-chiro-inositol, reference compound], which “initial concentration of cyclitols in axis tissues” value (immature soybean embryos; [3]) is on record?
Answer: 6.0 mg/g dry weight

Question: What about the “initial concentration of cyclitols in cotyledon tissues” value (immature soybean embryos; [3]) of the same compound?
Answer: 4.0 mg/g dry weight

Question: And the “increase in concentration of the fed cyclitol in axis” value (immature soybean embryos; [4])?
Answer: 6 fold

Question: What about the “increase in concentration of the fed cyclitol in cotyledon tissues” value (immature soybean embryos; [4]) of the same compound?
Answer: 11 fold

Question: What about the “increase in concentration after feeding D-pinitol” value (immature soybean embryos; axis and cotyledon tissues, concentration series, 14 days precocious maturation) of the same compound?
Answer: 8 fold

Question: What about the “increase in concentration after feeding D-chiro-inositol” value (immature soybean embryos; axis and cotyledons, concentration series, 14 days precocious maturation) of the same compound?
Answer: did not increase

Question: And the “appearance of seeds of explants fed the cyclitol” value (soybean explants [1]; 50 mM cyclitol fed one week, seeds dried)?
Answer: full and round seeds

Question: What about the “change in concentration after feeding 50 mM myo-inositol to explants” value (soybean explants [1]; axis and cotyledon tissue of mature seeds) of the same compound?
Answer: No significant changes

Question: What about the “change after feeding D-pinitol to explants” value (soybean explants [1]; both axis and cotyledon tissues) of the same compound?
Answer: quadrupled

Question: And the “Accumulation of soluble carbohydrates in soybean axis” value (“Accumulation … in soybean axis” for short) (soybean explants [2]; [5])?
Answer: 6.18 μg/axis

Question: What about the “Accumulation of soluble carbohydrates in soybean cotyledon” value (soybean explants [2]; [5]) of the same compound?
Answer: 140.00 μg/cotyledon

Question: And the “Accumulation of soluble carbohydrates in soybean seed coat” value (soybean explants [2]; [5])?
Answer: 6.55 μg/seed coat

Question: And the “Accumulation … in soybean axis” value (soybean explants [2]; [6])?
Answer: 7.87 μg/axis

Question: What about the “Accumulation of soluble carbohydrates in soybean cotyledon” value (soybean explants [2]; [6]) of the same compound?
Answer: 177.82 μg/cotyledon

Question: And the “Accumulation of soluble carbohydrates in soybean seed coat” value (soybean explants [2]; [6])?
Answer: 5.97 μg/seed coat

Question: What about the “Accumulation … in soybean axis” value (soybean explants [2]; [7]) of the same compound?
Answer: 6.21 μg/axis

Question: What about the “Accumulation of soluble carbohydrates in soybean cotyledon” value (soybean explants [2]; [7]) of the same compound?
Answer: 131.32 μg/cotyledon

Question: What about the “Accumulation of soluble carbohydrates in soybean seed coat” value (soybean explants [2]; [7]) of the same compound?
Answer: 14.69 μg/seed coat

Question: And the “Accumulation … in soybean axis” value (soybean explants [2]; [8])?
Answer: 3.86 μg/axis

Question: And the “Accumulation of soluble carbohydrates in soybean cotyledon” value (soybean explants [2]; [8])?
Answer: 171.09 μg/cotyledon

Question: And the “Accumulation of soluble carbohydrates in soybean seed coat” value (soybean explants [2]; [8])?
Answer: 10.95 μg/seed coat

Question: What about the “Accumulation … in soybean axis” value (soybean explants [2]; [9]) of the same compound?
Answer: 7.68 μg/axis

Question: And the “Accumulation of soluble carbohydrates in soybean cotyledon” value (soybean explants [2]; [9])?
Answer: 91.50 μg/cotyledon

Question: What about the “Accumulation of soluble carbohydrates in soybean seed coat” value (soybean explants [2]; [9]) of the same compound?
Answer: 12.79 μg/seed coat

Question: And the “Accumulation … in soybean axis” value (soybean explants [2]; [10])?
Answer: 4.13 μg/axis

Question: And the “Accumulation of soluble carbohydrates in soybean cotyledon” value (soybean explants [2]; [10])?
Answer: 90.76 μg/cotyledon

Question: What about the “Accumulation of soluble carbohydrates in soybean seed coat” value (soybean explants [2]; [10]) of the same compound?
Answer: 16.30 μg/seed coat

Question: And the “Accumulation … in soybean axis” value (soybean explants [2]; [11])?
Answer: 6.94 μg/axis

Question: And the “Accumulation of soluble carbohydrates in soybean cotyledon” value (soybean explants [2]; [11])?
Answer: 175.37 μg/cotyledon

Question: And the “Accumulation … in soybean axis” value (soybean explants [2]; [12])?
Answer: 6.11 μg/axis

Question: What about the “Accumulation of soluble carbohydrates in soybean cotyledon” value (soybean explants [2]; [12]) of the same compound?
Answer: 149.51 μg/cotyledon

Question: And the “Accumulation … in soybean axis” value (soybean explants [2]; [13])?
Answer: 22.93 μg/axis

Question: What about the “Accumulation of soluble carbohydrates in soybean cotyledon” value (soybean explants [2]; [13]) of the same compound?
Answer: 428.40 μg/cotyledon

Question: What about the “Accumulation of soluble carbohydrates in soybean seed coat” value (soybean explants [2]; [13]) of the same compound?
Answer: 78.06 μg/seed coat

Question: What about the “Accumulation … in soybean axis” value (soybean explants [2]; [14]) of the same compound?
Answer: 20.86 μg/axis

Question: What about the “Accumulation of soluble carbohydrates in soybean cotyledon” value (soybean explants [2]; [14]) of the same compound?
Answer: 431.73 μg/cotyledon

Question: What about the “Accumulation of soluble carbohydrates in soybean seed coat” value (soybean explants [2]; [14]) of the same compound?
Answer: 73.32 μg/seed coat

Question: What about the “Accumulation … in soybean axis” value (soybean explants [2]; [15]) of the same compound?
Answer: 14.00 μg/axis

Question: What about the “Accumulation of soluble carbohydrates in soybean cotyledon” value (soybean explants [2]; [15]) of the same compound?
Answer: 472.26 μg/cotyledon

Question: What about the “Accumulation of soluble carbohydrates in soybean seed coat” value (soybean explants [2]; [15]) of the same compound?
Answer: 58.50 μg/seed coat

Question: And the “Accumulation … in soybean axis” value (soybean explants [2]; [16])?
Answer: 20.05 μg/axis

Question: What about the “Accumulation of soluble carbohydrates in soybean cotyledon” value (soybean explants [2]; [16]) of the same compound?
Answer: 438.53 μg/cotyledon

Question: What about the “Accumulation of soluble carbohydrates in soybean seed coat” value (soybean explants [2]; [16]) of the same compound?
Answer: 90.19 μg/seed coat

Question: And the “Accumulation … in soybean axis” value (soybean explants [2]; [17])?
Answer: 26.07 μg/axis

Question: And the “Accumulation of soluble carbohydrates in soybean cotyledon” value (soybean explants [2]; [17])?
Answer: 160.89 μg/cotyledon

Question: What about the “Accumulation of soluble carbohydrates in soybean seed coat” value (soybean explants [2]; [17]) of the same compound?
Answer: 50.78 μg/seed coat

Question: What about the “Accumulation … in soybean axis” value (soybean explants [2]; [18]) of the same compound?
Answer: 56.18 μg/axis

Question: What about the “Accumulation of soluble carbohydrates in soybean cotyledon” value (soybean explants [2]; [18]) of the same compound?
Answer: 303.14 μg/cotyledon

Question: And the “Accumulation of soluble carbohydrates in soybean seed coat” value (soybean explants [2]; [18])?
Answer: 96.60 μg/seed coat

Question: And the “Accumulation … in soybean axis” value (soybean explants [2]; [19])?
Answer: 16.89 μg/axis

Question: What about the “Accumulation of soluble carbohydrates in soybean cotyledon” value (soybean explants [2]; [19]) of the same compound?
Answer: 351.23 μg/cotyledon

Question: And the “Accumulation … in soybean axis” value (soybean explants [2]; [20])?
Answer: 18.34 μg/axis

Question: What about the “Accumulation of soluble carbohydrates in soybean cotyledon” value (soybean explants [2]; [20]) of the same compound?
Answer: 497.66 μg/cotyledon

Question: What about the “Accumulation … in soybean axis” value (soybean explants [2]; [21]) of the same compound?
Answer: 5.05 μg/axis

Question: And the “Accumulation of soluble carbohydrates in soybean cotyledons” value (“Accumulation … in soybean cotyledons” for short) (soybean explants [2]; [21])?
Answer: 121.52 μg/cotyledon

Question: What about the “Accumulation of soluble carbohydrates in soybean seed coats” value (soybean explants [2]; [21]) of the same compound?
Answer: 11.24 μg/seed coat

Question: And the “Accumulation … in soybean axis” value (soybean explants [2]; [22])?
Answer: 5.72 μg/axis

Question: What about the “Accumulation … in soybean cotyledons” value (soybean explants [2]; [22]) of the same compound?
Answer: 132.23 μg/cotyledon

Question: And the “Accumulation of soluble carbohydrates in soybean seed coats” value (soybean explants [2]; [22])?
Answer: 9.35 μg/seed coat

Question: What about the “Accumulation … in soybean axis” value (soybean explants [2]; [23]) of the same compound?
Answer: 2.74 μg/axis

Question: What about the “Accumulation … in soybean cotyledons” value (soybean explants [2]; [23]) of the same compound?
Answer: 101.97 μg/cotyledon

Question: What about the “Accumulation … in soybean axis” value (soybean explants [2]; [24]) of the same compound?
Answer: 2.86 μg/axis

Question: What about the “Accumulation … in soybean cotyledons” value (soybean explants [2]; [24]) of the same compound?
Answer: 128.68 μg/cotyledon
